Source: US20030224453A1, “Structural models for cytoplasmic domains of transmembrane receptors” (priority 1998, published 2003)

Experiments:
[1] = molecular target: Talin of mouse C2C12 myotubes (mouse); assay: affinity chromatography: model protein on Ni2+ resin; lysate of mouse C2C12 myotubes
[2] = molecular target: Filamin of mouse C2C12 myotubes (mouse); assay: as above

Binder | binding [1] | binding [2]
G1-β1D cytoplasmic domain model protein (designed binder) GSSHHHHHHSSGLVPRGSHMKLEALEGRLDALEGKLEALEGKLDALEGKLLMIIHDRREFAKFEKEKMNAKWDTQENPIYKSPINNFKNPNYGRKAGL | binds | 
G4-β1D cytoplasmic domain model protein (designed binder) GSSHHHHHHSSGLVPRGSHMKLEALEGRLDALEGKLEALEGKLDALEGGGGKLLMIIHDRREFAKFEKEKMNAKWDTQENPIYKSPINNFKNPNYGRKAGL | binds | 
G1-β7 cytoplasmic domain model protein (designed binder) GSSHHHHHHSSGLVPRGSHMKLEALEGRLDALEGKLEALEGKLDALEGKLSVEIYDRREYSRFEKEQQQLNWKQDSNPLYKSAITTTINPRFQEADSPTL |  | binds
G4-β7 cytoplasmic domain model protein (designed binder) GSSHHHHHHSSGLVPRGSHMKLEALEGRLDALEGKLEALEGKLDALEGGGGKLSVEIYDRREYSRFEKEQQQLNWKQDSNPLYKSAITTTINPRFQEADSPTL |  | binds

Results are given in words; binding and its absence hold for the method and conditions named. Binding can be weak; no strength is given.
